# Reference: US20180256746A1 (Iono Pharma, LLC, priority 2017, published 2018)
# Several values for one entry are separate records, joined by “and”; a condition that tells them apart may be missing. Equal values may be shown once. Where a name gives a salt, the structure may show the parent alone.
# Experiment: Determination of the bitterness threshold of clindamycin in volunteers
structure (smiles),measurement,setting,value
"CCC[C@@H]1C[C@@H](C(=O)N[C@@H]([C@H]2O[C@H](SC)[C@H](O)[C@@H](O)[C@H]2O)[C@H](C)Cl)N(C)C1 [clindamycin, clindamycin hydrochloride]",concentration at which volunteers felt the bitterness,"four adult volunteers, two at each value, hydrochloride",10 µg/mL and 15 µg/mL
same,mean bitterness threshold,mean of four volunteers,12.5 µg/mL
same,bitterness threshold as % of the clindamycin dose,relative to dose used (75 mg/5 ml),approximately 0.1%
